Values quoted from earlier work, collected in US9839644B2, “Formulations and methods for treatment of metabolic syndrome” (ARKAY Therapeutics, LLC, priority 2014, dated 2017).
For at least one compound, name, drawing or mass did not settle the structure.

Experiments:
[1] = test system: C57BL/6J obese mice; details: cited from earlier work
[2] = test system: obese patients; details: 12 obese patients; cited from earlier work
[3] = test system: Wistar rat NASH model; details: cited from earlier work
[4] = test system: obese patients with T2DM; details: translational preclinical models and obese patients with T2DM; cited from earlier work
[5] = test system: male Sprague Dawley rats fed with High fructose diet or High fat diet (HFD); details: rat, in vivo; cited from earlier work
[6] = test system: C57BL/6J obese mice; details: cited from earlier work; remark: listed apart in the source

In the case of Cc1ccc(-c2cc(C(F)(F)F)nn2-c2ccc(S(N)(=O)=O)cc2)cc1 [Celecoxib], the “glucose tolerance (IPGTT)” value ([1]; 6 hour fast, glucose 2 g/Kg) is given as “improved”, the plasma insulin levels ([1]; after glucose injection) is given as “elevated” and the insulin sensitivity [2] is given as “restored”. The “steatohepatitis (liver histology)” value ([3]; HFD rats, Celecoxib 20 mg/kg/day for 4 weeks) was “attenuated”, the inflammation ([3]; Wistar rat NASH model) was “reverses” and the systemic insulin sensitivity [4] was “restore”. The insulin sensitivity [5] was “restore”, the low-grade inflammation [5] was “reverse” and the oxidative stress [5] was “reduce”. The HbA1c levels [6] was “reduces”.
